Measurements taken from patent publication US20190169301A1 (Boehringer Ingelheim, published 2019).
No constants are given. Whether binding was seen depends on the method and setting. Some binding calls cover weakened binding; strength is not graded here. Each block holds one binder with its values, some of them ahead of it.

Legend:
[1] = molecular target: T1, human CD40-Fc protein (human, UniProt P25942 21-193); experiment: ForteBio Octet, CD40-Fc, absence and presence of 50% human serum
T1 construct: also called recombinant CD40 protein; not shown: Fc part

[2] = molecular target: human CD40 on cells (CD40-transfected HEK293 cells, Ramos cells, human B cells, human platelets) (human) (UniProt P25942); experiment: flow cytometry, human Ramos cells
[3] = molecular target: human CD40 on cells (CD40-transfected HEK293 cells, Ramos cells, human B cells, human platelets) (human) (UniProt P25942); experiment: flow cytometry, human CD40-transfected HEK293 cells
[4] = molecular target: human CD40 on cells (CD40-transfected HEK293 cells, Ramos cells, human B cells, human platelets) (human) (UniProt P25942); experiment: flow cytometry (MFI) on CD40-transfected HEK cells
[5] = molecular target: human CD40 on cells (CD40-transfected HEK293 cells, Ramos cells, human B cells, human platelets) (human) (UniProt P25942); experiment: flow cytometry, directly labeled antibody, B cells and platelets in human whole blood
[6] = molecular target: cynomolgus monkey CD40 on cells (B cells, platelets) (cynomolgus monkey) (UniProt G7PG38); experiment: flow cytometry, directly labeled antibody, B cells and platelets in cynomolgus monkey whole blood
[7] = molecular target: cynomolgus monkey CD40 on cells (B cells, platelets) (cynomolgus monkey) (UniProt G7PG38); experiment: flow cytometry, FITC-labeled antibody, cynomolgus platelets

binding [1]: binds
B1: Antibody A (IgG1KO) (antibody, V domains shown)
VH: EVQLVESGGGLVKPGGSLRLSCAASGFTFSDYGMHWVRQAPGKGLEWVAYISSGNRIIYYADTVKGRFTISRDNAKNSLYLQMNSLRAEDTALYYCARQDGYRYAMDYWAQGTLVTVSS
VL: DIVMTQSPDSLAVSLGERATMSCKSSQSLLNSGNQKNYLTWHQQKPGQPPKLLIYWTSTRESGVPDRFSGSGSGTDFTLTISSLQAEDVAVYYCQNDYTYPLTFGGGTKVEIKR
notes: also called 20E2-12

binding [2]: binds
binding [3]: binds
binding [4]: binds
binding [1]: binds
binding [5]: binds
binding [6]: binds
B2: Antibody B (IgG1KO) (antibody, V domains shown)
VH: EVQLVESGGGLVKPGGSLRLSCAASGFTFSDYGMHWVRQAPGKGLEWVAYISSGNRIIYYADTVKGRFTISRDNAKNSLYLQMNSLRAEDTAVYYCARQDGYRYAMDYWGQGTLVTVSS
VL: DIVMTQSPDSLAVSLGEKVTINCKSSQSLLNSGNQKNYLTWHQQKPGQPPKLLIYWTSTRESGVPDRFSGSGSGTDFTLTISSLQAEDVAVYYCQNDYTYPLTFGGGTKVEIKR

binding [1]: binds
B3: Antibody C (IgG1KO) (antibody, V domains shown)
VH: QVQLVQSGAEVKKPGASVKVSCTASGFNIKDYYVHWVKQAPGQGLEWMGRIDPEDGDSKYAPKFQGKATMTADTSTSTVYMELSSLRSEDTAVYYCTTSYYVGTYGYWGQGTLVTVSS
VL: DIQMTQSPSSLSASVGDRVTITCSASSSVSYMLWFQQKPGKAPKLLIYSTSNLASGVPSRFSGSGSGTDFTLTISSLQPEDFATYYCQQRTFYPYTFGGGTKVEIKR
notes: also called 2H11-159-94

binding [7]: binds
B4: 2H11 (murine anti-human CD40 antibody) (antibody, V domains shown)
VH: EVQLQQSGAELVRPGASVKLSCTASGFNIKDYYVHWVKQRPEKGLEWIGRIDPEDGDSKYAPKFQGKATMTADTSSNTAYLHLSSLTSEDTAVYYCTTSYYVGTYGYWGQGTTLTVSS
VL: QIVLTQSPAIMSASPGEKVTITCSASSSVSYMLWFQQKPGTSPKLWIYSTSNLASGVPARFGGSGSGTSYSLTISRMEAEDAATYYCQQRTFYPYTFGGGTKLEIK
notes: Mouse monoclonal antibody
